In patent US20250171821A1, “HIF-1 ACTIVATORS AND USES THEREOF” (Ramot at Tel-Aviv University Ltd., priority 2022, published 2025) one finds autofluorescence data, which are given here for one compound.

“Also recorded” adds a separate entry of the source.

This series concerns HGF cells. Description: Autofluorescence control without antibodies. In kind it is cell-based, human. The conditions noted are these: 5 μM ML228, without DAPI, β-tubulin and Collagen-I antibodies.

For `c1ccc(-c2ccc(CNc3nc(-c4ccccn4)nnc3-c3ccccc3)cc2)cc1` [ML228, N-([1,1′-Biphenyl]-4-ylmethyl)-6-phenyl-3-(2-pyridinyl)-1,2,4-triazin-5-amine], the autofluorescence result is “does not impart any detectable autofluorescence; also recorded: does not have autofluorescence”.
